Test results as given in PMC8786996.
Read-outs that look alike come from different tables or passages of the source. These are yes or no findings as the source states them, for the method shown. Binding calls can cover weak binding; strength is not graded here. For some assays here: Where a sequence is shown, tags or fusion partners need not be part of it. For some assays here: Binding seen in cells or lysates may run through a third protein. Values belong to the molecule of their own block, whether it stands above or below them.

The chains behind the UniProt entries cited, without tags or fusion partners. Where a name states a change or a piece, a line headed by the entry shows the natural chain unless it says otherwise.
UniProt B7ELI9: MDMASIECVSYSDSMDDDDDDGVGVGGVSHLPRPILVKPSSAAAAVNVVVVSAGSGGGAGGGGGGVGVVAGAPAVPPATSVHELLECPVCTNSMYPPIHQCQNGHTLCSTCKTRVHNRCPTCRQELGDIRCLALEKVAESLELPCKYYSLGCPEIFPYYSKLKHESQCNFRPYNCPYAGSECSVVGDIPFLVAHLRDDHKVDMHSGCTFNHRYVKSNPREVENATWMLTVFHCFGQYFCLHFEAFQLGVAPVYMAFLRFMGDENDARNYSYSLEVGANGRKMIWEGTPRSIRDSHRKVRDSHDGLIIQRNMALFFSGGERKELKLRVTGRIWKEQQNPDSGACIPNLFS
UniProt Q60EU0: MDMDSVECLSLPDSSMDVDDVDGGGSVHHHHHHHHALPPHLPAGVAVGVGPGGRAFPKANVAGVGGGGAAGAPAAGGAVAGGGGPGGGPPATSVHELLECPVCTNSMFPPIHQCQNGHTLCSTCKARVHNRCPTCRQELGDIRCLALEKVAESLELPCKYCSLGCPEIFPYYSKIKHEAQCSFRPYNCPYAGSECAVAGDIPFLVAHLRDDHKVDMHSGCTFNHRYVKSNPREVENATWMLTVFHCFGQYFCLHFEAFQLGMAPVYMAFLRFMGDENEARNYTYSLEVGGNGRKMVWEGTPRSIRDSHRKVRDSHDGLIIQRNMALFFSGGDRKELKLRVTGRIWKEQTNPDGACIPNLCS
UniProt B7F5A8: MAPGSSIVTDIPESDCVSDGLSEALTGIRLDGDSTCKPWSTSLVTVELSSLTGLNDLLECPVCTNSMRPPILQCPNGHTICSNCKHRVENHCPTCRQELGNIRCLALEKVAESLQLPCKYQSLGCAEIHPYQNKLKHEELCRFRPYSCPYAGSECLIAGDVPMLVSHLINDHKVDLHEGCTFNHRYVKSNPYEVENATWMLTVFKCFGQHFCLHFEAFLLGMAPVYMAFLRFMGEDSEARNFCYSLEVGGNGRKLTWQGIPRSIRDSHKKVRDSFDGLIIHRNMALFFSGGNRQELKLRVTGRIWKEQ
UniProt B7F029: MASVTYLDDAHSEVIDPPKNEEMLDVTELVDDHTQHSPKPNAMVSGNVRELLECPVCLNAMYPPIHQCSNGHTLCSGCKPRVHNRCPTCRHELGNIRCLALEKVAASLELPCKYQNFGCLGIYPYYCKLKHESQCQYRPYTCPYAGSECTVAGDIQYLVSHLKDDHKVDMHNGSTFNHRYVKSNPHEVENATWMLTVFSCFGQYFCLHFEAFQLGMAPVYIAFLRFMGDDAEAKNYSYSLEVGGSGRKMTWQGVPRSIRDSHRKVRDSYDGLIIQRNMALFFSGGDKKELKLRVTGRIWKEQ

Experiments:
[1] = target: T1, RMD P3 fragment (aa 338-821) fused to the GAL4 DNA-binding domain (BK-P3) (rice) (UniProt Q84ZL0); assay: two-hybrid; direct bait-prey pairs: baits in pGBKT7 (GAL4 DNA-binding domain), preys in pGADT7, co-transformed into S. cerevisiae AH109, spotted on selective media with X-gal
T1 sequence: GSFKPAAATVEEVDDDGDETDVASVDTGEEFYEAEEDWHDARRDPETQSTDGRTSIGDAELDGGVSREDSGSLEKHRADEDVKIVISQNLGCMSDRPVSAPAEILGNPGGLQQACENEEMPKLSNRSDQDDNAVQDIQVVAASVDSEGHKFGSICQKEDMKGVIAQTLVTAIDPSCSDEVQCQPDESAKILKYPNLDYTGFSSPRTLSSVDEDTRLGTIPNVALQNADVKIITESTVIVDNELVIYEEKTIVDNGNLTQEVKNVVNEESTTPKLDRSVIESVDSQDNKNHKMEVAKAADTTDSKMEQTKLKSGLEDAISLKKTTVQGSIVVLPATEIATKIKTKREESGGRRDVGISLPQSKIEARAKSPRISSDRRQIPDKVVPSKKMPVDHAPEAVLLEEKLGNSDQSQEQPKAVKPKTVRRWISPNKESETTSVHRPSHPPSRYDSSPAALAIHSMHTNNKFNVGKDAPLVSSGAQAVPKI

[2] = target: full-length RIP1 as yeast two-hybrid fusion (AD-RIP1 prey; BK-RIP1 bait) (rice) (UniProt B7ELI9); assay: as above
[3] = target: T2, RMD N-terminal P2 fragment (821 amino acids) fused to the GAL4 DNA-binding domain (BK-P2) (rice) (UniProt Q84ZL0); assay: as above
T2 sequence: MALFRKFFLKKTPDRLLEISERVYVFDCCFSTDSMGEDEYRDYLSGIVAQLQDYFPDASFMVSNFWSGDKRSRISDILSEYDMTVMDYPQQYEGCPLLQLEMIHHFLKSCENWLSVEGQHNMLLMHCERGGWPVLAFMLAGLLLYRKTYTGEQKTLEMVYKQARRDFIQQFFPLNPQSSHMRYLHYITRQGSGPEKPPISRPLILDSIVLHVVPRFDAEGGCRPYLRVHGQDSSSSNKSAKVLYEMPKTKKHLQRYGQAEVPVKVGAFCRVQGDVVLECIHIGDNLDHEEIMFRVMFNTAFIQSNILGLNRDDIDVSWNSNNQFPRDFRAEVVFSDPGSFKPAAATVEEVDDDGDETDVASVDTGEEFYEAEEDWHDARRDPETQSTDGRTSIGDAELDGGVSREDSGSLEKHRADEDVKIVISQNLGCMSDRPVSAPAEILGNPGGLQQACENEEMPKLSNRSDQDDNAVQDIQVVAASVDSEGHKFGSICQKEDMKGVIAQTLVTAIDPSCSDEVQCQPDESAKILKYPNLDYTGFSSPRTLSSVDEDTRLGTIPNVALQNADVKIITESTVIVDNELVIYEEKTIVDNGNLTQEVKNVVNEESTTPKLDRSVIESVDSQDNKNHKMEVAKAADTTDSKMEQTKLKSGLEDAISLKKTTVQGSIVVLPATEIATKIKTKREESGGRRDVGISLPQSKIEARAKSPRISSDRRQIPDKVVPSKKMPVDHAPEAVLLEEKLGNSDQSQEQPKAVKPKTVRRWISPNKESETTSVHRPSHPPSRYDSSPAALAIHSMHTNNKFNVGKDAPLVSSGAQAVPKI

[4] = target: full-length RMD fused to cYFP (RMD-cYFP), in tobacco leaves (rice) (UniProt Q84ZL0); assay: split reporter; BiFC with nYFP and cYFP fusions co-transformed into Nicotiana benthamiana leaves by Agrobacterium; confocal microscopy after 24-36 h in the dark
[5] = target: full-length RIP2 fused to a half of YFP, in tobacco leaves (rice) (UniProt Q60EU0); assay: as above
[6] = target: full-length RIP4 fused to a half of YFP, in tobacco leaves (rice) (UniProt B7F5A8); assay: as above
[7] = target: T3, full-length RIP5 fused to a half of YFP, in tobacco leaves (rice) (UniProt Q10L91); assay: as above
T3 sequence: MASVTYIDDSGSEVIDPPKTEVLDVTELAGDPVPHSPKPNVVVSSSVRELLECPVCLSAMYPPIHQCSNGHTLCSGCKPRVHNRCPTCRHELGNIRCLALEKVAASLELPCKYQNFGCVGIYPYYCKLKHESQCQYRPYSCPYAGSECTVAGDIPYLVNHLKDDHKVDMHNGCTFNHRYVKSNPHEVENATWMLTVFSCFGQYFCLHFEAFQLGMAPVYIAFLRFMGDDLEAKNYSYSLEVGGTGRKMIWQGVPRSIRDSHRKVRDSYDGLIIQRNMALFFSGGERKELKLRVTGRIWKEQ

[8] = target: full-length RIP2 fused to a half of YFP, in tobacco leaves (rice) (UniProt Q60EU0); assay: as above; remark: listed apart in the source
[9] = target: full-length RIP4 fused to a half of YFP, in tobacco leaves (rice) (UniProt B7F5A8); assay: as above; remark: listed apart in the source

binding [1]: binds
binding [2]: binds
Molecule: SIAH domain of RIP1 fused to the GAL4 activation domain (AD-SIAH1) (from UniProt B7ELI9) (domain or fragment)

binding [2]: binds
Molecule: SIAH domain of RIP2 fused to the GAL4 activation domain (AD-SIAH2) (from UniProt Q60EU0) (domain or fragment)

binding [2]: binds
Molecule: SIAH domain of RIP3 fused to the GAL4 activation domain (AD-SIAH3) (from UniProt Q5NAX7) (domain or fragment)

binding [2]: binds
Molecule: SIAH domain of RIP4 fused to the GAL4 activation domain (AD-SIAH4) (from UniProt B7F5A8) (domain or fragment)

binding [3]: binds
Molecule: SIAH domain of RIP5 fused to the GAL4 activation domain (AD-SIAH5) (rice) (domain or fragment)

binding [2]: binds
Molecule: SIAH domain of RIP6 fused to the GAL4 activation domain (AD-SIAH6) (from UniProt B7F029) (domain or fragment)

binding [1]: binds
Molecule: full-length RIP1 as yeast two-hybrid fusion (AD-RIP1 prey; BK-RIP1 bait) (from UniProt B7ELI9)

binding [4]: binds
Molecule: full-length RIP2 fused to a half of YFP, in tobacco leaves (from UniProt Q60EU0)

binding [5]: binds
binding [4]: binds
Molecule: full-length RIP4 fused to a half of YFP, in tobacco leaves (from UniProt B7F5A8)

binding [5]: binds
binding [6]: binds
binding [4]: binds
binding [7]: binds
Molecule: full-length RIP6 fused to a half of YFP, in tobacco leaves (from UniProt B7F029)

binding [8]: binds
binding [9]: binds
B1: full-length RIP5 fused to a half of YFP, in tobacco leaves (protein, UniProt Q10L91 1-301)
chain: T3 sequence
